Results: US7977107B2, “Oral detection test for cannabinoid use” (LabOne, Inc., priority 2004, dated 2011)
Values joined by “and” are separate entries in the source; they are usually repeats but may differ in a detail not shown here. Equal entries are not always repeated.

Experiment: THCA-glucuronide liberation by alkaline hydrolysis with NaOH, quantitated as THCA by GC/MS/MS

## CCCCCc1cc(O)c2c(c1)OC(C)(C)[C@H]1CCC(C(=O)O[C@@H]3O[C@H](C(=O)O)[C@@H](O)[C@H](O)[C@H]3O)=C[C@H]21 [THCA-glucuronide]
N = 3, spiked at 66 pg/mL equivalent THCA
  Recovered THCA, Average: 62.64 pg/mL
Single replicates, oral fluid spiked with THCA-glucuronide at 66 pg/mL equivalent THCA, alkaline hydrolysis
  Recovered THCA: 64.47 pg/mL and 70.80 pg/mL and 52.65 pg/mL
